PubChem BioAssay AID743121, NCATS | 2013
In all, the deposit lists about 26,000 reagents; shown is a random part of them. Over the whole deposit, 167 (0.63%) were called active. 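Calls are per gene from RSA p-values that are not deposited; an individual active-marked siRNA can sensitise only weakly.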 A number with no mark means an inactive call. Not all columns of the deposit are shown.

Test: 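Knock-downs that sensitise breast cancer cells to camptothecin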 (primary screen)
Cell system: MDA-MB-231 cells, a human breast cancer line
Reagents: single siRNA against human genes, 20 nM siRNA (0.8 pmol per well)
Timing: 120 h (drug added 48 h after transfection, read 72 h later)
Treatment: camptothecin 20 nM (about EC30) for 72 h; vehicle 0.1% DMSO in parallel plates
Measurement: 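CellTiter-Glo ATP signal, scaled to control siRNA as percent viability; sensitisation given as log2 of untreated divided by camptothecin-treated viability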
Direction: log2 vehicle/camptothecin viability: higher = stronger sensitisation to camptothecin; viability with camptothecin: higher = more viable cells
Units: viability with camptothecin in % of control
Hit rule: 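Each gene scored by redundant siRNA activity (RSA) over its individual siRNA ratios; a gene is called active at p < 0.001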

GIT1 [SID164464587] | log2 vehicle/camptothecin viability: -0.642; viability with camptothecin: 74.8
GIT1 [SID164464588] | log2 vehicle/camptothecin viability: 0.44; viability with camptothecin: 51.4
GIT1 [SID164464591] | log2 vehicle/camptothecin viability: -0.218; viability with camptothecin: 21.5
GIT1 [SID164464593] | log2 vehicle/camptothecin viability: -0.0366; viability with camptothecin: 33.3
POR [SID164381752] | log2 vehicle/camptothecin viability: -0.226; viability with camptothecin: 59.5
POR [SID164381753] | log2 vehicle/camptothecin viability: -0.358; viability with camptothecin: 86.7
POR [SID164381754] | log2 vehicle/camptothecin viability: -0.08; viability with camptothecin: 93.3
POR [SID164381755] | log2 vehicle/camptothecin viability: -0.0897; viability with camptothecin: 93
INHBA [SID164371610] | log2 vehicle/camptothecin viability: 0.121; viability with camptothecin: 57.6
INHBA [SID164371611] | log2 vehicle/camptothecin viability: -0.245; viability with camptothecin: 69.8
INHBA [SID164371613] | log2 vehicle/camptothecin viability: -0.255; viability with camptothecin: 64.4
INHBA [SID164371614] | log2 vehicle/camptothecin viability: 0.035; viability with camptothecin: 50.3
AFG3L2 [SID164414402] | log2 vehicle/camptothecin viability: -0.232; viability with camptothecin: 112
AFG3L2 [SID164414403] | log2 vehicle/camptothecin viability: -0.395; viability with camptothecin: 5.18
AFG3L2 [SID164414404] | log2 vehicle/camptothecin viability: -0.135; viability with camptothecin: 55.9
AFG3L2 [SID164414405] | log2 vehicle/camptothecin viability: -0.272; viability with camptothecin: 85.9
